Data: PubChem BioAssay AID248 (DTP/NCI, 2004)
The list does not hold the whole screen: it is rich in T/C values a quarter to a half above the control, in often repeated tests (any T/C) and in doses without a T/C. Further doses and runs are listed elsewhere. T/C is the treated group as % of the vehicle group. Some doses have a count of surviving animals in place of a T/C: the source files T/C as zero there, which appears to mark a toxic dose or a test without result, not a measured value. Counts of survivors are from the toxicity check (mostly the fifth day) where no day follows; animals may have died later. Schedule codes are those of the source, read here as Q, the interval in days (D) or hours (H), X, the number of doses.

Test system: L1210 leukemia ip in BDF1 mice, survival T/C
Experiment: NCI In Vivo Anticancer Drug Screen. Data for tumor model L1210 Leukemia (intraperitoneal) in B6D2F1 (BDF1) mice
Conditions: T/C endpoint: mean survival time, schedule: Q01DX005 (ip), vehicle: saline, higher T/C = longer survival

Measured: survivor count

CNC(=O)C1OC(n2cnc3c(N)ncnc32)C(O)C1O (stereo not drawn)
0 of 6: dose: 1.56 mg/kg/injection | dose: 3.12 mg/kg/injection | dose: 6.25 mg/kg/injection | dose: 12.5 mg/kg/injection | dose: 25.0 mg/kg/injection | dose: 50.0 mg/kg/injection | dose: 100.0 mg/kg/injection | dose: 200.0 mg/kg/injection
